Experimental data reported in PMC10550995.
Results are given in words; binding and its absence hold for the method and conditions named. In cells and extracts the contact can be indirect. Some results given as binding are weak or reduced against the parent protein; the word gives no strength. For some assays here: Where a sequence is shown, tags or fusion partners need not be part of it.

Protein sequences, listed by entry. Tags and fused reporters are not part of them. Residues count along the entry.
UniProt P11021, residues 19-654: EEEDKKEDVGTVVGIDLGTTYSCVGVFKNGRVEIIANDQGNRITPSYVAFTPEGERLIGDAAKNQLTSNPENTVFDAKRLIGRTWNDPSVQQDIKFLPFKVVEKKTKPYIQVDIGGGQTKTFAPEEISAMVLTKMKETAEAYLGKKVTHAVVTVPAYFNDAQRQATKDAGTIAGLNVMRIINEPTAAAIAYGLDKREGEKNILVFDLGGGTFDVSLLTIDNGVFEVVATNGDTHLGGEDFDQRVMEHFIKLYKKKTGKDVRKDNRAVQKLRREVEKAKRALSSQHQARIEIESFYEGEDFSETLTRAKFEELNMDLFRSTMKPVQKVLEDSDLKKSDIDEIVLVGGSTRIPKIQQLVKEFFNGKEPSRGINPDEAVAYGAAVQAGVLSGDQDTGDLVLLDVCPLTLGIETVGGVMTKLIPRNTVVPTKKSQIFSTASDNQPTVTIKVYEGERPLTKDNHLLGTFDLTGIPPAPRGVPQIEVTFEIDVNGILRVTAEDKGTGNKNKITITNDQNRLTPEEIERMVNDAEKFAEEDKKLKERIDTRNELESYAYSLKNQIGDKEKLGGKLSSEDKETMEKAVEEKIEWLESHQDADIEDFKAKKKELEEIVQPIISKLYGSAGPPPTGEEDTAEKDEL
UniProt P38646, residues 47-679: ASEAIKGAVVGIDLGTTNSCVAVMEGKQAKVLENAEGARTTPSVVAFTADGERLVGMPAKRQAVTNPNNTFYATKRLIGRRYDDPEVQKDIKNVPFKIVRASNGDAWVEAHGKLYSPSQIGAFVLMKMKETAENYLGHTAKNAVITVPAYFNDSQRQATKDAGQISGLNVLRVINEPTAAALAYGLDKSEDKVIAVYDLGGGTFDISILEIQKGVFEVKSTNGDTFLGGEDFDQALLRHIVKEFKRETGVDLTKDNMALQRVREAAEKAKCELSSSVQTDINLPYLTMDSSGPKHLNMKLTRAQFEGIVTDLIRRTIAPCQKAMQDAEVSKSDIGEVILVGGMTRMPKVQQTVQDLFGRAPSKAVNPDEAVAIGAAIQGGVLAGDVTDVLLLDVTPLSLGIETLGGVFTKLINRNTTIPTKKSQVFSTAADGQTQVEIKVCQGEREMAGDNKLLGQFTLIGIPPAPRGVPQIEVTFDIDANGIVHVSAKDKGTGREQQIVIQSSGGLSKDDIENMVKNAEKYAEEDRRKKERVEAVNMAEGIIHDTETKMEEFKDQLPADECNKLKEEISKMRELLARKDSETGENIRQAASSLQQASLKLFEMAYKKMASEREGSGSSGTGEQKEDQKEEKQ

How the values were obtained:
14-3-3γ-Myc = biological target: T1, 14-3-3γ-Myc (UniProt P61981); assay: co-IP; HepG2 cotransfected with 14-3-3γ-Myc and ENDOG-Flag or pLVX3-Flag for 48 h; lysed with Western/IP buffer with PMSF and phosphatase inhibitor cocktail
T1 sequence: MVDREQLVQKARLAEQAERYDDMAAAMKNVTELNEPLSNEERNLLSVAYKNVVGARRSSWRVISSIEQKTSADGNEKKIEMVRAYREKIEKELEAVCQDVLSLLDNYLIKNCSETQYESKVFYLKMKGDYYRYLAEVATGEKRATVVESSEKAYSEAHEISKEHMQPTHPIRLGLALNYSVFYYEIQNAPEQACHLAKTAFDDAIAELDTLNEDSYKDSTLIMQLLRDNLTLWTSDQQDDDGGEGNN

[1] = biological target: Bip, endogenous (human (endogenous in HepG2)) (UniProt P11021); assay: co-IP; HepG2 transfected with ENDOG-Flag or pLVX3-Flag for 48 h; partners endogenous; lysed with Western/IP buffer with PMSF and phosphatase inhibitor cocktail
[2] = biological target: Grp75, endogenous (human (endogenous in HepG2)) (UniProt P38646); assay: as above
[3] = biological target: T2, 14-3-3γ, endogenous (human (endogenous in HepG2)) (UniProt P61981); assay: as above
T2 sequence: T1 sequence

Bip-Myc = Bip-Myc (UniProt P11021); assay: co-IP; HepG2 cotransfected with Bip-Myc and pK-Myc or ENDOG plasmid for 48 h
[4] = biological target: Bip, endogenous (human (endogenous in HepG2)) (UniProt P11021); assay: proximity ligation; Duolink in situ PLA with anti-ENDOG and anti-Bip antibodies on fixed HepG2 cells, with or without 200 μM oleic acid for 24 h
[5] = biological target: Bip, endogenous (human (endogenous in HepG2)) (UniProt P11021); assay: co-IP; endogenous co-IP in HepG2: wild-type and ENDOG knockout cells; cells with or without 200 μM oleic acid for 24 h
[6] = biological target: T2, 14-3-3γ, endogenous (human (endogenous in HepG2)); assay: as above

B1: ENDOG-Flag (protein, UniProt Q14249 49-297)
chain: AELPPVPGGPRGPGELAKYGLPGLAQLKSRESYVLCYDPRTRGALWVVEQLRPERLRGDGDRRECDFREDDSVHAYHRATNADYRGSGFDRGHLAAAANHRWSQKAMDDTFYLSNVAPQVPHLNQNAWNNLEKYSRSLTRSYQNVYVCTGPLFLPRTEADGKSYVKYQVIGKNHVAVPTHFFKVLILEAAGGQIELRTYVMPNAPVDEAIPLERFLVPIESIERASGLLFVPNILARAGSLKAITAGSK
With B1 the binding (14-3-3γ-Myc) was “binds”, the binding [1] was “binds” and the binding [2] was “binds”. For the same binder, the binding [3] was “binds”.

B2: ENDOG (overexpressing plasmid, control pK-Myc) (protein, UniProt Q14249 49-297)
chain: B1 chain
For B2, the binding (Bip-Myc) was “binds”.

B3: Endonuclease G (ENDOG), endogenous (protein, UniProt Q14249 49-297)
chain: B1 chain
B3 was tested, and the binding [4] was “binds”, the binding [5] was “binds” and the binding [6] was “binds”.
